Source: publication PMC5263256
These are yes or no findings as the source states them, for the method shown. Binding seen in cells or lysates may run through a third protein. Here binding means that the protein was enriched with, or labelled near, the bait; the list need not be complete. Where a sequence is shown, tags or fusion partners need not be part of it.

Sequences of proteins named here, by UniProt entry; tags and fusion partners are left off. A change or cut given only in a name is not applied to a line headed by its entry.
UniProt Q9D168: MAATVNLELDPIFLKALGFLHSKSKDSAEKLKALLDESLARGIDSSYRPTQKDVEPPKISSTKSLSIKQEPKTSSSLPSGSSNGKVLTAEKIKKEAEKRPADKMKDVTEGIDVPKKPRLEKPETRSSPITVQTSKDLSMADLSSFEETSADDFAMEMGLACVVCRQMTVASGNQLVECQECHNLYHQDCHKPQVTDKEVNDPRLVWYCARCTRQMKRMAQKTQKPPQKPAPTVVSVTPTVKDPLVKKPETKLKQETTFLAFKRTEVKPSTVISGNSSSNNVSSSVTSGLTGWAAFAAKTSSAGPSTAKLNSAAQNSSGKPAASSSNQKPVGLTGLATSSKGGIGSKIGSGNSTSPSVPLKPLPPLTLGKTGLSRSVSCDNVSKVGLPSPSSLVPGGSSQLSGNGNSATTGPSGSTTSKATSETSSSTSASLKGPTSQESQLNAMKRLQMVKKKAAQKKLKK
UniProt B2RX14: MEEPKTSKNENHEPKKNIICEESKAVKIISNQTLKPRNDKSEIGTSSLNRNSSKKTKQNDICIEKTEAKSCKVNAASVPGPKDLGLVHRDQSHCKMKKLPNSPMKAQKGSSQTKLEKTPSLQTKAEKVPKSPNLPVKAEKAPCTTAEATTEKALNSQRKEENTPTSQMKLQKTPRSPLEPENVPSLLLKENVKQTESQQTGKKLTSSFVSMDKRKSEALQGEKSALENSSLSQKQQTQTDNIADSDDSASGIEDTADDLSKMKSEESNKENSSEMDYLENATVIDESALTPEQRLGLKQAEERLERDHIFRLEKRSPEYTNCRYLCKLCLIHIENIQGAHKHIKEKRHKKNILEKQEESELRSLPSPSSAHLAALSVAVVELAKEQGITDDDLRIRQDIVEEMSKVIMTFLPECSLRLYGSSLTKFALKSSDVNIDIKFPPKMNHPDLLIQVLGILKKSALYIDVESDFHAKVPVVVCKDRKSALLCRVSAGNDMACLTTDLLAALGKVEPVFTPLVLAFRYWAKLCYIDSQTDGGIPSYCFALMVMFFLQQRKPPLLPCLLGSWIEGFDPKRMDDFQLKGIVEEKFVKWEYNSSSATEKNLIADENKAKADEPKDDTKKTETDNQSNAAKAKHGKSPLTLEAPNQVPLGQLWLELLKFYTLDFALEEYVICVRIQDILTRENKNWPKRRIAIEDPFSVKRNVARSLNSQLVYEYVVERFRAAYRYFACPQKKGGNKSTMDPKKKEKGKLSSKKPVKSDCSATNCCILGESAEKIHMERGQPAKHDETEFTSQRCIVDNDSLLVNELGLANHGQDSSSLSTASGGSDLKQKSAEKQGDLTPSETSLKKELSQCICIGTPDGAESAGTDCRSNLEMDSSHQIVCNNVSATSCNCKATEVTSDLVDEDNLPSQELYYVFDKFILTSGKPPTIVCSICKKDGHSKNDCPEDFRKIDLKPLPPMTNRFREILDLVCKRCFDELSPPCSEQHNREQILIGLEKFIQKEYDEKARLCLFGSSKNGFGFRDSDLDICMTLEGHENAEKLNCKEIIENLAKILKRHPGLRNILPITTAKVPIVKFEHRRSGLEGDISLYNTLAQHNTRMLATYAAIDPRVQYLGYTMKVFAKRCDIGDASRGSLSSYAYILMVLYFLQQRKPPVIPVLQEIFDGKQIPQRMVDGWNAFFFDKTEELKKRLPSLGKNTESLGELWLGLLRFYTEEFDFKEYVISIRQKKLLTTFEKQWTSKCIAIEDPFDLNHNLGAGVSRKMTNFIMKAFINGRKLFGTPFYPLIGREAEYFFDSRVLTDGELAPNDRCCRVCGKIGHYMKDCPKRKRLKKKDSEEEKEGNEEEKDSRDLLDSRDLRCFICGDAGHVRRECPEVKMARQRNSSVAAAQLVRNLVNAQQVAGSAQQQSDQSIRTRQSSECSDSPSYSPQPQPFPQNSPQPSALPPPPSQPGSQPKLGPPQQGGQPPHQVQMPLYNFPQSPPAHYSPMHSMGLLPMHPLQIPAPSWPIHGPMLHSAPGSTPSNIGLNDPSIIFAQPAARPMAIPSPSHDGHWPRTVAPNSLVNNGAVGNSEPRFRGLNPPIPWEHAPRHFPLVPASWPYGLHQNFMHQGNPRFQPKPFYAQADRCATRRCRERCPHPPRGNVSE
UniProt Q9CWS4: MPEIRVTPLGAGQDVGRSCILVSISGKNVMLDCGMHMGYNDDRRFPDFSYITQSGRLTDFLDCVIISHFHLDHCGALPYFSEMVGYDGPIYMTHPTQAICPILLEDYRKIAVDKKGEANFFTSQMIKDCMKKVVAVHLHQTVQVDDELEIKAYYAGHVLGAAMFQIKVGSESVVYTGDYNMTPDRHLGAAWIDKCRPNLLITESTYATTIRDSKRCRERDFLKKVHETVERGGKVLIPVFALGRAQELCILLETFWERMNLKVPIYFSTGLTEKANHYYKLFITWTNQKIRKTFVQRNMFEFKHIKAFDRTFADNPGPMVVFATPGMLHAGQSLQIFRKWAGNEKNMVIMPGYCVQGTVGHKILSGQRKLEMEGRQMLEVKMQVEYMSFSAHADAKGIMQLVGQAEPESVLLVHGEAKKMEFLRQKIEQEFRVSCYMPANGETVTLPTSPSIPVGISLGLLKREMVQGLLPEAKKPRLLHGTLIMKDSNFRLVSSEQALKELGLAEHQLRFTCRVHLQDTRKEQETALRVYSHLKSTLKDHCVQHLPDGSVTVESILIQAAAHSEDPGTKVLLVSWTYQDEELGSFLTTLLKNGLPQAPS
UniProt Q6PCM2: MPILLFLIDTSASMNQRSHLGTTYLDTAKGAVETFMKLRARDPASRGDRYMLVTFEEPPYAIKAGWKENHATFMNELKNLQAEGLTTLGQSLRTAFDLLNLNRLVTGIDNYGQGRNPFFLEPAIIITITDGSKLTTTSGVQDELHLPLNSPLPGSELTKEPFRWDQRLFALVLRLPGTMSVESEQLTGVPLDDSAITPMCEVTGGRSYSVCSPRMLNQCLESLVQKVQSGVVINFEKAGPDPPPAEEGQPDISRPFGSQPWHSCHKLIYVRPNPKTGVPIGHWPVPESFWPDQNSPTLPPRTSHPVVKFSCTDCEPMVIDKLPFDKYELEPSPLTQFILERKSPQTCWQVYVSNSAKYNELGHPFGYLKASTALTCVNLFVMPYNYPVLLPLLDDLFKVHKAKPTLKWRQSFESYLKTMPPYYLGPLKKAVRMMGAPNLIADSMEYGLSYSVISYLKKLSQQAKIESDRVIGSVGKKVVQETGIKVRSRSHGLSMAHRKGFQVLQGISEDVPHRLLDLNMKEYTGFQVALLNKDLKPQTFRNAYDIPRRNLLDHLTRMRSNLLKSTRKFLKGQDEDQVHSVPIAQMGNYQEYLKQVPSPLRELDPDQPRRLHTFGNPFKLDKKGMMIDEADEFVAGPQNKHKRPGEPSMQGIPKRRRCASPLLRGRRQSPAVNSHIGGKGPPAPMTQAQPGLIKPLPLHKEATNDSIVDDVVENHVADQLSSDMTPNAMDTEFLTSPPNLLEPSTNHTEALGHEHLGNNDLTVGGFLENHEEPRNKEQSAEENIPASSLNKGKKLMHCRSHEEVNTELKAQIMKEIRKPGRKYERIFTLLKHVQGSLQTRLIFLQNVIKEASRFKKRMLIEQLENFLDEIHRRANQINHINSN
UniProt Q8QZV7: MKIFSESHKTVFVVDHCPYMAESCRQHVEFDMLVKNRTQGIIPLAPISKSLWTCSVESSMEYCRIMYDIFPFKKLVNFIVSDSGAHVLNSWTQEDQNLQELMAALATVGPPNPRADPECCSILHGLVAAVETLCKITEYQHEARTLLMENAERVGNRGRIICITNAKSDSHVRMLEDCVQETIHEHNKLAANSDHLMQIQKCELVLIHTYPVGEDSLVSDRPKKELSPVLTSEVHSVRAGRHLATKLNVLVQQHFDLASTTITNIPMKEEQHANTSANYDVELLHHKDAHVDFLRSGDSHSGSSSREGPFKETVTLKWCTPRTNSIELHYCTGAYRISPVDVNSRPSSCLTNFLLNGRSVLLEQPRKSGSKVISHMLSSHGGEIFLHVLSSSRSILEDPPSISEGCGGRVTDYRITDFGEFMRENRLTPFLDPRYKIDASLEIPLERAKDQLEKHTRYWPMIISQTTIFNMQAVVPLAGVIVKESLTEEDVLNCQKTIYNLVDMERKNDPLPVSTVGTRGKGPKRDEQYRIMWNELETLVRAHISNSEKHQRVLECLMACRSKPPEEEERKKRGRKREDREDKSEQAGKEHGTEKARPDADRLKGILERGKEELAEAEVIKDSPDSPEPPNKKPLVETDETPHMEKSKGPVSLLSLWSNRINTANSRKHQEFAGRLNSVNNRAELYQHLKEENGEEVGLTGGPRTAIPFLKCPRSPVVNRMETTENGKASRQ
UniProt Q80UK8: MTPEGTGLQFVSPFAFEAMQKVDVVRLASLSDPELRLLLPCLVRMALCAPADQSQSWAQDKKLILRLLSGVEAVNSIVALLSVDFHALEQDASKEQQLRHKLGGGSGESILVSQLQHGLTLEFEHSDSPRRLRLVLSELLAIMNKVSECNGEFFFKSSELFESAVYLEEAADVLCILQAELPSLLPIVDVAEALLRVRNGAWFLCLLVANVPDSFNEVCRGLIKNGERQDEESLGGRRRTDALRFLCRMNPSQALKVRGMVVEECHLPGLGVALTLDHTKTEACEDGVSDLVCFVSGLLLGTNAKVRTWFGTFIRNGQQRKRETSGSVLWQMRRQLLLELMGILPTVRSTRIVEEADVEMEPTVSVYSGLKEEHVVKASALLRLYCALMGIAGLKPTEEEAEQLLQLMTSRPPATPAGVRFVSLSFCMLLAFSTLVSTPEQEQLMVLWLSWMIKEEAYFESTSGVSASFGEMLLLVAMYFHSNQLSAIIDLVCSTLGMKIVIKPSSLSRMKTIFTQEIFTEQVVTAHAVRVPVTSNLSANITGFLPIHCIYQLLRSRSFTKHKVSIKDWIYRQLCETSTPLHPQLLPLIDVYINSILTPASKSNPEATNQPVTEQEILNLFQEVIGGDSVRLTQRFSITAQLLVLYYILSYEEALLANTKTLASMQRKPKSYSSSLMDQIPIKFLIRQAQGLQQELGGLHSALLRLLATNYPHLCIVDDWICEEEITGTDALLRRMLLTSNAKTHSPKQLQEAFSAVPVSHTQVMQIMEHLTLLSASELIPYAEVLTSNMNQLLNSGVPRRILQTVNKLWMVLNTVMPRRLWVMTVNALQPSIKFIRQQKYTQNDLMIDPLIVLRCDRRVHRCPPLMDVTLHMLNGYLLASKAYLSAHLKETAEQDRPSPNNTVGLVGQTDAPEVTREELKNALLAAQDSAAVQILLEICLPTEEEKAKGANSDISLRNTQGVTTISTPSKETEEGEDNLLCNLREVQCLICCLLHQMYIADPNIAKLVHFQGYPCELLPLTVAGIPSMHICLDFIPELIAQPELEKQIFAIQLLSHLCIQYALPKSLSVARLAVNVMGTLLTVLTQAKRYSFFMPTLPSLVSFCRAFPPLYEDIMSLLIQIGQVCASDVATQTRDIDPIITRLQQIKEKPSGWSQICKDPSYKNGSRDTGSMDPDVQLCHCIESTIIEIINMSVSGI
UniProt Q8K114: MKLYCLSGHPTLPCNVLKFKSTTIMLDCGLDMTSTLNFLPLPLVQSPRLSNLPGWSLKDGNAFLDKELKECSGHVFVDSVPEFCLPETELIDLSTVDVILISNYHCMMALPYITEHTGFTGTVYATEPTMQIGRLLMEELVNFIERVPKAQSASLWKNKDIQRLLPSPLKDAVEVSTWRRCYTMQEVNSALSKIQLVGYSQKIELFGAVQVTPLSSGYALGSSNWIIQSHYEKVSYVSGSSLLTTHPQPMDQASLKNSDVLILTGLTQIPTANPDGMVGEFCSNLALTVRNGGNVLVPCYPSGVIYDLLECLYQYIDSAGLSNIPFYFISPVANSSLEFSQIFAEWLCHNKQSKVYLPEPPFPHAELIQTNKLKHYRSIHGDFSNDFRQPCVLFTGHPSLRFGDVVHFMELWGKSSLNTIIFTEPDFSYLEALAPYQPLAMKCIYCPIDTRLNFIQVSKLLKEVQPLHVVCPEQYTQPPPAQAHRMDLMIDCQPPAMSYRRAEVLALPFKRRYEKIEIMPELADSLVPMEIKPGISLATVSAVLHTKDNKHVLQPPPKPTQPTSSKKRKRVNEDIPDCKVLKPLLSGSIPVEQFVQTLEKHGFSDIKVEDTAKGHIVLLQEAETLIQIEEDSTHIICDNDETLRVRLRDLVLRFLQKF
UniProt Q8R2Y9: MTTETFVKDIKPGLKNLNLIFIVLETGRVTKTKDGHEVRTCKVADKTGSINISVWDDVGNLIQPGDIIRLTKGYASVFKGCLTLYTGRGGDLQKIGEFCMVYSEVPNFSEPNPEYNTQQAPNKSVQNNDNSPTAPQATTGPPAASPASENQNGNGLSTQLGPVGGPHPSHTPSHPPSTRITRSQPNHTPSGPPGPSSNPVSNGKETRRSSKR

T1: V5-tagged Zfp609 (mouse) (UniProt Q8BZ47)
T1 sequence: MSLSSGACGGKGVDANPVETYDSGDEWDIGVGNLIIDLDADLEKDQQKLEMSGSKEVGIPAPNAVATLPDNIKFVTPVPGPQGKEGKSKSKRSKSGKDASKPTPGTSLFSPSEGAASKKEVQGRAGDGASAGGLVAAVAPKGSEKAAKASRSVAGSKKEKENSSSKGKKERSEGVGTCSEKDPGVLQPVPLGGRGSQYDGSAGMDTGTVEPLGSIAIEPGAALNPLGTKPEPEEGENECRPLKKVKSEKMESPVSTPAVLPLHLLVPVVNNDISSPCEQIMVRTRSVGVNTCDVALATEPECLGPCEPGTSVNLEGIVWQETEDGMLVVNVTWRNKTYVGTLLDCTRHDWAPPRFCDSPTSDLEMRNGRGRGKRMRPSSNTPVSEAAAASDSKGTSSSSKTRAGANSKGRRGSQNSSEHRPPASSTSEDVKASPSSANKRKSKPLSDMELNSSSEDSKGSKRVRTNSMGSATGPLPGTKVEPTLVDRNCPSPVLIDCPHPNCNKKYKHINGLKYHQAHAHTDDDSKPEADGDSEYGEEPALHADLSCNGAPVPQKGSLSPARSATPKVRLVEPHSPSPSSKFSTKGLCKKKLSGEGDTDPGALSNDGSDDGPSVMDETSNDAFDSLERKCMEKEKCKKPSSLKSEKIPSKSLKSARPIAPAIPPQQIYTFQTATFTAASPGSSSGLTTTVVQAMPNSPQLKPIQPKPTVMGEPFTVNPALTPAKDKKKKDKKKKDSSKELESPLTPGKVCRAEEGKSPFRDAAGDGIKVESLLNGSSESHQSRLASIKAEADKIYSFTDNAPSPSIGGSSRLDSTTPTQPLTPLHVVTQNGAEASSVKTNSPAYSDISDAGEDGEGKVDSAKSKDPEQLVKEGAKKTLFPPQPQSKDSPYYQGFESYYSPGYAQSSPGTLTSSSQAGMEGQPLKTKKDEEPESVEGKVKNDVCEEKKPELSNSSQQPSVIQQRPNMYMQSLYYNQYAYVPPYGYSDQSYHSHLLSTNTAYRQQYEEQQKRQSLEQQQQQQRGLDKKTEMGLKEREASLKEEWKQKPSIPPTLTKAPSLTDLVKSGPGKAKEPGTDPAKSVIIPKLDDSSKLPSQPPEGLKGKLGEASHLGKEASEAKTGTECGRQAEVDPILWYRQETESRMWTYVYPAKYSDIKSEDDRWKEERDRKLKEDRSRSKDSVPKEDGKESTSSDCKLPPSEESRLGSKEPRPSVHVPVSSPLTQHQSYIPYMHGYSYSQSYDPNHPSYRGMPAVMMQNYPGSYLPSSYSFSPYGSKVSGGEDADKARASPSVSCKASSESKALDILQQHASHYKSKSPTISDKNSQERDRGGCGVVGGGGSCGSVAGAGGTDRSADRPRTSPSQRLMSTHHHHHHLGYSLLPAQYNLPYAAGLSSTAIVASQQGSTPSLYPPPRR

B1: Akap8l (protein, UniProt Q9R0L7 1-642)
chain: MSYTGFVQGSETTLQSTYCDTSAQPTCDYGYGTWNSGTNRGYENYGYGYGYGQDNTTNYGYGMATSHSWEMASSDTNANPSASGSASADSVLSRINQRLDMMPHLETDMIQGGVYGSGGGERYDSYEACDSRAILSERDLYRSSYDYGELDPEMEMAYEGQYDAYRDQFRMRGGDTFGPRAQGWARDARSGRPMASGYGRMWEDPMGARGQCMPGASRLPSLFSQNIIPEYGMFQGMRGGGAFSGGSRFGFGFGNGMKQMRRTWKTWTTADFRTKKKKRKQGGSPDEPDSKATRTDCSDNSDSDNDEGTEGEAAEGTESAEAMEKGSRVDGEDEEGKEDGREEGKEDPEKGALTAQDESSQAKRKLQASKKSQDKQKKRQRDRMVERIQFVCSLCKYRTFYEDEMGSHLDSKFHKEHFKYVGTKLPKQTADFLQEYVTNKTKKTEELRKTVEDLDGLIQQIYRDQDLTQEIAMEHFVKKVEAAHCAACDLFIPMQFGIIQKHLKTMDHNRNRRLMMEQSKKSSLMVARSILNNKLISKKLERYLKGENPFTDNPEEEKEQDEVEAGALDEGAPSEATELTEGVPAQPPVPLEPAPGTTTPPPPPPPEEEESPVPLLGGALQCQIRGIPGLDMEDDEEGGGGP
B2: Maged1 (protein, UniProt Q9QYH6 1-775)
chain: MAQKPDGGAGLRGFQAEASVEDSALLVQTLMEAIQISEAPPTSQATAAASGPNASPQSSQPPTANEKADTEVSAAAARPKTGFKAQNATTKGPNDYSQARNAKEMPKNQSKAAFKSQNGTPKGPHAASDFSQAAPTGKSAKKSEMAFKGQNSTKAGPGTTYNFPQSPSANEMTNNQPKTAKAWNDTTKVPGADAQTQNVNQAKMADVGTSAGISEADGAAAQTSADGSQTQNVESRTIIRGKRTRKVNNLNVEENNSGDQRRASLASGNWRSAPVPVTTQQNPPGAPPNVVWQTPLAWQNPSGWQNQTARQTPPAARQSPPARQTPSAWQNPVAWQNPVIWPNPVIWQNPVIWPNPIVWPGPIVWPNPMAWQSTPGWQSPPSWQAPPSWQSPQDWQGPPDWQVPPDWSMPPDWSFPSDWPFPPDWIPADWPIPPDWQNLRPSPNLRSSSNSRASQNQGPPQPRDVALLQERANKLVKYLMLKDYTKVPIKRSEMLRDIIREYTDVYPEIIERACFVLEKKFGIQLKEIDKEEHLYILISTPESLAGILGTTKDTPKLGLLLVILGIIFMNGNRATEAVLWEALRKMGLRPGVRHPLLGDLRKLLTYEFVKQKYLDYRRVPNSNPPEYEFLWGLRSYHETSKMKVLRFIAEVQKRDPRDWTAQFMEAADEALDALDAAAAEAEARAEARNRMGIGDEAVSGPWSWDDIEFELLTWDEEGDFGDPWSRIPFTFWARYHQNARSRFPQAFTGPIIGPSGTATANFAANFGAIGFFWVE
B3: Bag5 (protein, UniProt Q8CI32 1-447)
chain: MDMGNQHPSISRLQEIQREVKAIEPQVVGFSGLSDDKNYKRLERILTKQLFEIDSVDTEGKGDIQQARKRAAQETERLLKELEQNANHPHRIEIQNIFKEAQALVKDKIVPFYSGGNCVTDEFEEGIQDIILRLTHVKTGGKVSLRKARYRTLTKICAVQEVIEDCMKKQPSLPLSEDVHPSVAKINSVMCEVNKARGTLIALLMGVDSSETCRHLSCVLSGLIADLDALDVCGRTEIRNYRREVVEDINKLLKYLDLEEEADSTHAFDLGQNHSIIKIENVLKRMREIKNELLQAQSPPELYLRAKTELQGLIGQLDEVSLEKNPCIREARRRAVIEVQILITYLDLKEALEKRKLFPCEEHPPHKAVWEILGNLSEILGEVLSFGGNRTDKNYIRLEELLTKQLLALDAVDPQGEEKCKAARKQAVKLAQNILSYLDMKSDEWEY
B4: Zbtb20 (protein, UniProt Q8K0L9 1-741)
chain: MLERKKPKTAENQKASEENEITQPGGSSAKPALPCLNFEAVLSPAPALIHSTHSLTNSHAHTGSSDCDISCKGMTERIHSINLHNFSNSVLETLNEQRNRGHFCDVTVRIHGSMLRAHRCVLAAGSPFFQDKLLLGYSDIEIPSVVSVQSVQKLIDFMYSGVLRVSQSEALQILTAASILQIKTVIDECTRIVSQNVGDVFPGIQDSGQDTPRGTPESGTSGQSSDTESGYLQSHPQHSVDRIYSALYACSMQNGSGERSFYSGAVVSHHETALGLPRDHHMEDPSWITRIHERSQQMERYLSTTPETTHCRKQPRPVRIQTLVGNIHIKQEMEDDYDYYGQQRVQILERNESEECTEDTDQAEGTESEPKGESFDSGVSSSIGTEPDSVEQQFGAAAPRDGQAEPAQPEQAAEAPAESSAQPNQLEPGASSPERSNESEMDNTVITVSNSSDKGVLQQPSVNTSIGQPLPSTQLYLRQTETLTSNLRMPLTLTSNTQVIGTAGNTYLPALFTTQPAGSGPKPFLFSLPQPLTGQQTQFVTVSQPGLSTFTAQLPAPQPLASSAGHSTASGQGDKKPYECTLCNKTFTAKQNYVKHMFVHTGEKPHQCSICWRSFSLKDYLIKHMVTHTGVRAYQCSICNKRFTQKSSLNVHMRLHRGEKSYECYICKKKFSHKTLLERHVALHSASNGTPPAGTPPGARAGPPGVVACTEGTTYVCSVCPAKFDQIEQFNDHMRMHVSDG
B5: Rfx4 (protein, UniProt Q7TNK1 1-735)
chain: MHCGLLEEPDMDSTESWIERCLNESENKRYSSHTSLGNVSNDENEEKENNRASKPHSTPATLQWLEENYEIAEGVCIPRSALYMHYLDFCEKNDTQPVNAASFGKIIRQQFPQLTTRRLGTRGQSKYHYYGIAVKESSQYYDVMYSKKGAAWVSETGKREVTKQTVAYSPRSKLGTLLPDFPNVKDLNLPASLPEEKVSTFIMMYRTHCQRILDTVIRANFDEVQSFLLHFWQGMPPHMLPVLGSSTVVNIVGVCDSILYKAISGVLMPTVLQALPDSLTQVIRKFAKQLDEWLKVALHDLPENLRNIKFELSRRFSQILRRQTSLNHLCQASRTVIHSADITFQMLEDWRNVDLSSITKQTLYTMEDSRDEHRRLIIQLYQEFDHLLEEQSPIESYIEWLDTMVDRCVVKVAAKRQGSLKKVAQQFLLMWSCFGTRVIRDMTLHSAPSFGSFHLIHLMFDDYVLYLLESLHCQERANELMRAMKGEGSTAEAQEEIILTEATPPTPSPGPSFSPAKSATSVEVPPPSSPVSNPSPEYTGLSTAGAMQSYTWSLTYTVTTAAGSPAENSQQLPCMRSTHMPSSSVTHRIPVYSHREEHGYTGSYNYGSYGNQHPHPLQNQYPALPHDTAISGPLHYSPYHRSSAQYPFNSPTSRMEPCLMSSTPRLHPTPVTPRWPEVPTANACYTSPSVHSTRYGNSSDMYTPLTTRRNSEYEHMQHFPGFAYINGEASTGWAK

Target: T1, V5-tagged Zfp609 (mouse)
Assay: affinity purification with mass spectrometry; anti-V5 agarose beads on nuclear extract of Zfp609-V5-expressing NSCs, 3 hr at 4°C, 225 U Benzonase, washes in C-100* (100 mM KCl, 0.02% NP-40); NSCs not expressing Zfp609-V5 as control; hits present in two purifications

binding	Molecule
binds	Setx (from UniProt A2AKX3 1-2646)
binds	Vwa9 (from UniProt Q8R3P6 1-515)
binds	Hspa2 (from UniProt P17156 1-633)
binds	Ints12 (from UniProt Q9D168 1-461)
binds	Ints7 (from UniProt Q7TQK1 1-966)
binds	Ints1 (from UniProt Q6P4S8 1-2195)
binds	Zcchc11 (from UniProt B2RX14)
binds	Ints3 (from UniProt Q7TPD0 1-1041)
binds	Cpsf3l (from UniProt Q9CWS4 1-600)
binds	Ints6 (from UniProt Q6PCM2 1-883)
binds	Ints8 (from UniProt Q80V86 1-995)
binds	Ints5 (from UniProt Q8CHT3 1-1018)
binds	Dnaja2 (from UniProt Q9QYJ0 1-412)
binds	Asun (from UniProt Q8QZV7 1-732)
binds	Nipbl (from UniProt Q6KCD5 1-2798)
binds	Smc3 (from UniProt Q9CW03 1-1217)
binds	Ints2 (from UniProt Q80UK8 1-1198)
binds	Ints9 (from UniProt Q8K114 1-658)
binds	Stub1 (from UniProt Q9WUD1 1-304)
binds	Nabp2 (from UniProt Q8R2Y9 1-212)
binds	B1
binds	B2
binds	B3
binds	B4
binds	B5
